Laboratory results: PubChem BioAssay AID504764 (Drosophila RNAi Screening Center, 2011)

Test: 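Genome-wide screen for regulators of Notch-driven gene expression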 (primary screen)
System: Drosophila Kc167 cells
Reagent: long dsRNA against Drosophila genes
Duration: about 5 days (4 days dsRNA, then 24 h after transfection)
Conditions: transfection of constitutively active membrane-tethered Notch lacking the extracellular domain, read 24 h later
Read-out: 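Firefly luciferase from an E(spl)m3 reporter with active Notch, plus control-promoter and uninduced reporter wells for normalisation; unnormalised counts, duplicate wells a and b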
Scale: induced reporter light, run 1, well a and induced reporter light, run 1, well b: higher = more light from the Notch target reporter with active Notch; control promoter light, run 1, well a and control promoter light, run 1, well b: higher = more light from the viral control promoter (cell number, transfection, viability); uninduced reporter light, run 1, well a: higher = more light from the Notch target reporter without active Notch
Hit rule: 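Wells with low control signal or poorly matching duplicates excluded; duplicates averaged; per source plate, z beyond ±2 for induced/control log2 ratio or beyond ±1.8 for induced/uninduced marks a hit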
Meaning of the calls: active = modifier hit (raised or lowered Notch signal); inactive = not a hit
The screen tested about 22,000 reagents; shown is a random part of those with a known target gene and a result. In the full data, 403 (1.9%) are marked active. 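Unnormalised raw counts per well; ratio z-scores behind the hit calls and whether each hit raises or lowers signal are not deposited.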 Not stated in the record: the amount of reagent.

For RpL17 (Ribosomal protein L17) [DRSC18293], the values are induced reporter light, run 1, well a = 10030; induced reporter light, run 1, well b = 9135; control promoter light, run 1, well a = 15230; control promoter light, run 1, well b = 15275; uninduced reporter light, run 1, well a = 765; inactive. Against Zmynd8 (Zinc finger MYND-type containing 8) [DRSC15310] the deposit lists induced reporter light, run 1, well a = 1.56e5; induced reporter light, run 1, well b = 1.72e5; control promoter light, run 1, well a = 2.30e5; control promoter light, run 1, well b = 2.16e5; uninduced reporter light, run 1, well a = 12940; inactive. For pyd3 [DRSC15459], the values are induced reporter light, run 1, well a = 1.60e5; induced reporter light, run 1, well b = 1.53e5; control promoter light, run 1, well a = 92565; control promoter light, run 1, well b = 91720; uninduced reporter light, run 1, well a = 12040; inactive. For CG32248 [DRSC08102] the deposit lists induced reporter light, run 1, well a = 2.39e5; induced reporter light, run 1, well b = 2.00e5; control promoter light, run 1, well a = 2.59e5; control promoter light, run 1, well b = 2.59e5; uninduced reporter light, run 1, well a = 19320; inactive. Silencing of bumpel [DRSC16100] resulted in: induced reporter light, run 1, well a = 1.47e5; induced reporter light, run 1, well b = 1.66e5; control promoter light, run 1, well a = 1.45e5; control promoter light, run 1, well b = 1.01e5; uninduced reporter light, run 1, well a = 8240; inactive. Silencing of jb (jean-baptiste) [DRSC20531] resulted in: induced reporter light, run 1, well a = 68465; induced reporter light, run 1, well b = 1.09e5; control promoter light, run 1, well a = 82010; control promoter light, run 1, well b = 79420; uninduced reporter light, run 1, well a = 9855; inactive.

Depletion of CG10205 [DRSC05979] resulted in: induced reporter light, run 1, well a = 67295; induced reporter light, run 1, well b = 65900; control promoter light, run 1, well a = 1.02e5; control promoter light, run 1, well b = 1.00e5; uninduced reporter light, run 1, well a = 6180; inactive.

Reformatted: 2 of the entries above.
{"gene":"CG32248","amplicon":"DRSC08102","induced reporter light, run 1, well a":2.39e5,"induced reporter light, run 1, well b":2.00e5,"control promoter light, run 1, well a":2.59e5,"control promoter light, run 1, well b":2.59e5,"uninduced reporter light, run 1, well a":19320,"call":"inactive"}
{"gene":"bumpel","amplicon":"DRSC16100","induced reporter light, run 1, well a":1.47e5,"induced reporter light, run 1, well b":1.66e5,"control promoter light, run 1, well a":1.45e5,"control promoter light, run 1, well b":1.01e5,"uninduced reporter light, run 1, well a":8240,"call":"inactive"}

Next records follow:
Knock-down of CG2750 [DRSC19867] gave: induced reporter light, run 1, well a = 1.39e5; induced reporter light, run 1, well b = 1.45e5; control promoter light, run 1, well a = 3.03e5; control promoter light, run 1, well b = 2.69e5; uninduced reporter light, run 1, well a = 10830; inactive. Knock-down of CG1360 [DRSC06406] gave: induced reporter light, run 1, well a = 1.66e5; induced reporter light, run 1, well b = 1.61e5; control promoter light, run 1, well a = 1.96e5; control promoter light, run 1, well b = 1.94e5; uninduced reporter light, run 1, well a = 16675; inactive. AMPKalpha (AMP-activated protein kinase alpha subunit) [DRSC18714] showed induced reporter light, run 1, well a = 1.93e5; induced reporter light, run 1, well b = 1.50e5; control promoter light, run 1, well a = 1.96e5; control promoter light, run 1, well b = 2.49e5; uninduced reporter light, run 1, well a = 12178; inactive. With knock-down of Os-C [DRSC16778], the screen gave induced reporter light, run 1, well a = 1.01e5; induced reporter light, run 1, well b = 95815; control promoter light, run 1, well a = 77565; control promoter light, run 1, well b = 80400; uninduced reporter light, run 1, well a = 6895; inactive. Grl62c (Gustatory receptor-like 62c) [DRSC07964] scored induced reporter light, run 1, well a = 2.22e5; induced reporter light, run 1, well b = 1.98e5; control promoter light, run 1, well a = 2.15e5; control promoter light, run 1, well b = 2.11e5; uninduced reporter light, run 1, well a = 16710; inactive.
